Among the data in patent US6770259 (dated 2004) are isolated yield values, retold here.

A short description of this data set: general procedure: Fmoc solid-phase peptide synthesis; HMPB-BHA resin; HATU/DIEA. Conditions: whole synthesis.

* marks the point of attachment. Dde = CC(=C1C(=O)CC(C)(C)CC1=O)*; Boc = CC(C)(C)OC(=O)*

Boc-GK(Dde)K(Dde)K(Dde)-OH registered an isolated yield of 35%.
